The results in this text go back to doi:10.1101/2023.08.03.551696.

Amino acid sequences for entries named in this document (tags omitted). Residues count along the entry.
UniProt P01584, 117-269: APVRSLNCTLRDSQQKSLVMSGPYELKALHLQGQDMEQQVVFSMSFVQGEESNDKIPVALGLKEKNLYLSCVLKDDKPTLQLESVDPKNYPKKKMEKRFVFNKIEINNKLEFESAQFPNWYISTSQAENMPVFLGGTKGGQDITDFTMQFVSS

Assay [1] has as its target T1, MxA-V5 (myxovirus resistant protein 1, V5-tagged) (human) (UniProt P20591).
T1 sequence: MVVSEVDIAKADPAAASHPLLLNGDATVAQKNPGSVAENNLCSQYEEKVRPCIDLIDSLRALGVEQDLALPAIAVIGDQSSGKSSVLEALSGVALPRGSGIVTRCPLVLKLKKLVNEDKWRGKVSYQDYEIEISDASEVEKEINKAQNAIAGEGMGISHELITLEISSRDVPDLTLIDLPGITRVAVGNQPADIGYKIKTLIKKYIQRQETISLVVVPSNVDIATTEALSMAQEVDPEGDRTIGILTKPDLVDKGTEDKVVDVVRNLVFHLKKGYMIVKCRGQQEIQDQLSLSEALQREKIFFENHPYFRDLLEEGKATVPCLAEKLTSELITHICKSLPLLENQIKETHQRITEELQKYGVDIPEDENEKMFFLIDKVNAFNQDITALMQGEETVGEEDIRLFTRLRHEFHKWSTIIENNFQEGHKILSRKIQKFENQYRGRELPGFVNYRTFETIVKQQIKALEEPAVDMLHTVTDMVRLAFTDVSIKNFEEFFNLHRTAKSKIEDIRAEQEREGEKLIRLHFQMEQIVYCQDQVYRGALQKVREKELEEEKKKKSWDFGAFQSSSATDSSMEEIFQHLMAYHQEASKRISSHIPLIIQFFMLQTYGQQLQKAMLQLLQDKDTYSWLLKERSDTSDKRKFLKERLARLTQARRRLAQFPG
Put plainly: co-IP.

In assay [2] the target is MxA (endogenous, membrane-bound) (human (endogenous in BLaER1)) (UniProt P20591). Put plainly: semidenaturing detergent agarose gel electrophoresis.
For assay [3], the target named is purified human MxA (recombinant) (human) (UniProt P20591). Put plainly: cross-linking.

Results are given in words; binding and its absence hold for the method and conditions named. For part of these data: In cells and extracts the contact can be indirect. Some entries that bind do so weakly or less than the wild type. For part of these data: Tags and fused reporters may be left off the sequences shown.

For the molecule “mature IL-1β (endogenous) (from UniProt P01584 117-269)”, the binding result in assay [1] is reported as “binds”.

B1: MxA (endogenous, membrane-bound) (protein, UniProt P20591 1-662)
chain: MVVSEVDIAKADPAAASHPLLLNGDATVAQKNPGSVAENNLCSQYEEKVRPCIDLIDSLRALGVEQDLALPAIAVIGDQSSGKSSVLEALSGVALPRGSGIVTRCPLVLKLKKLVNEDKWRGKVSYQDYEIEISDASEVEKEINKAQNAIAGEGMGISHELITLEISSRDVPDLTLIDLPGITRVAVGNQPADIGYKIKTLIKKYIQRQETISLVVVPSNVDIATTEALSMAQEVDPEGDRTIGILTKPDLVDKGTEDKVVDVVRNLVFHLKKGYMIVKCRGQQEIQDQLSLSEALQREKIFFENHPYFRDLLEEGKATVPCLAEKLTSELITHICKSLPLLENQIKETHQRITEELQKYGVDIPEDENEKMFFLIDKVNAFNQDITALMQGEETVGEEDIRLFTRLRHEFHKWSTIIENNFQEGHKILSRKIQKFENQYRGRELPGFVNYRTFETIVKQQIKALEEPAVDMLHTVTDMVRLAFTDVSIKNFEEFFNLHRTAKSKIEDIRAEQEREGEKLIRLHFQMEQIVYCQDQVYRGALQKVREKELEEEKKKKSWDFGAFQSSSATDSSMEEIFQHLMAYHQEASKRISSHIPLIIQFFMLQTYGQQLQKAMLQLLQDKDTYSWLLKERSDTSDKRKFLKERLARLTQARRRLAQFPG
B1: the binding entry in assay [2] is “binds”.

B2: purified human MxA (recombinant) (protein, UniProt P20591 1-662)
chain: MVVSEVDIAKADPAAASHPLLLNGDATVAQKNPGSVAENNLCSQYEEKVRPCIDLIDSLRALGVEQDLALPAIAVIGDQSSGKSSVLEALSGVALPRGSGIVTRCPLVLKLKKLVNEDKWRGKVSYQDYEIEISDASEVEKEINKAQNAIAGEGMGISHELITLEISSRDVPDLTLIDLPGITRVAVGNQPADIGYKIKTLIKKYIQRQETISLVVVPSNVDIATTEALSMAQEVDPEGDRTIGILTKPDLVDKGTEDKVVDVVRNLVFHLKKGYMIVKCRGQQEIQDQLSLSEALQREKIFFENHPYFRDLLEEGKATVPCLAEKLTSELITHICKSLPLLENQIKETHQRITEELQKYGVDIPEDENEKMFFLIDKVNAFNQDITALMQGEETVGEEDIRLFTRLRHEFHKWSTIIENNFQEGHKILSRKIQKFENQYRGRELPGFVNYRTFETIVKQQIKALEEPAVDMLHTVTDMVRLAFTDVSIKNFEEFFNLHRTAKSKIEDIRAEQEREGEKLIRLHFQMEQIVYCQDQVYRGALQKVREKELEEEKKKKSWDFGAFQSSSATDSSMEEIFQHLMAYHQEASKRISSHIPLIIQFFMLQTYGQQLQKAMLQLLQDKDTYSWLLKERSDTSDKRKFLKERLARLTQARRRLAQFPG
On to B2, for which, in assay [3], the binding result is “binds”.
